Laboratory results published in paper PMC4742742.
No constants are given. Whether binding was seen depends on the method and setting. For some assays here: Binding seen in cells or lysates may run through a third protein. Some entries that bind do so weakly or less than the wild type.

The chains behind the UniProt entries cited, without tags or fusion partners. Where a name states a change or a piece, a line headed by the entry shows the natural chain unless it says otherwise. Residues count along the entry.
UniProt P16109: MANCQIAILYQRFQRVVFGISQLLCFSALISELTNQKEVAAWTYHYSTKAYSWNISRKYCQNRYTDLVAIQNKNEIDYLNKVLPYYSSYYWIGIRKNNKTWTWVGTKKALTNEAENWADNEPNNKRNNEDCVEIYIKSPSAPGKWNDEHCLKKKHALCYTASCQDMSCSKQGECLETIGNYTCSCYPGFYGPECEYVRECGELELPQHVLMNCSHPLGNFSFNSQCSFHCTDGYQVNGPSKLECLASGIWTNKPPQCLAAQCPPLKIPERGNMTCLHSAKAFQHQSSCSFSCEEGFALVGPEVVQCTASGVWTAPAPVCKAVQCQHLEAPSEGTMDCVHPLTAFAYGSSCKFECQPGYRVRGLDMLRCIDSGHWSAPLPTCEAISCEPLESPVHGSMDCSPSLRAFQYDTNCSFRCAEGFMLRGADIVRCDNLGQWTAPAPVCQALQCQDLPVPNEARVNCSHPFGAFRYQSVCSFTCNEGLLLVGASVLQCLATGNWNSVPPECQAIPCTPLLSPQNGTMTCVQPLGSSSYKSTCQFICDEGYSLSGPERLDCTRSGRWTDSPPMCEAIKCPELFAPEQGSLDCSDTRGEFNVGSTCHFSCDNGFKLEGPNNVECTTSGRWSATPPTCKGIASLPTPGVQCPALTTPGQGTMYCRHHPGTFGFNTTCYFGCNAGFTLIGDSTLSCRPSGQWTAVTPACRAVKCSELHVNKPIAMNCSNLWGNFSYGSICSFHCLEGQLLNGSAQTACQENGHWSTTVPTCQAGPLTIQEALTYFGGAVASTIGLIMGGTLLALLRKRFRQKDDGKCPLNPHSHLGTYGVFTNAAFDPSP
P-selectin, native, of human platelets (human (endogenous in platelets)): residues 42-830 of P16109

Columns and labels:
[1] = biological target: Recombinant P-selectin-Fc fusion protein (UniProt P16109); assay: co-IP; cell-free: 2 μg/ml P-selectin-Fc and PSGL-1-Fc co-incubated 2 h in PBS plus 1 mM CaCl2; PSGL-1 immunoprecipitated with 10 μg/ml antibody; with or without 5 μM Efb or Efb-N; immunoblot; both purified
[2] = biological target: Recombinant P-selectin-Fc fusion protein (UniProt P16109); assay: SPR; P-selectin-Fc immobilised on SensiQ COOHV chip by amine coupling; full-length Efb 100 nM-2.8 μM; SensiQ Pioneer FE; Qdat fit; both purified
[3] = biological target: FITC-labeled full-length Efb (residues 29-165) (Staphylococcus aureus); assay: flow cytometry on cells; competition: 50 μg/ml soluble P-selectin-Fc against thrombin-stimulated platelets for 1 μM FITC-Efb; both purified
[4] = biological target: Extracellular fibrinogen-binding protein (Efb), recombinant full-length Efb (residues 29-165), His-tagged (Staphylococcus aureus); assay: pull-down; His-tagged Efb or Efb-N on His-Select HF nickel affinity gel; human platelet lysate (ultrasonication) without added fibrinogen; immunoblot; only the target purified
[5] = biological target: N-terminal region of Efb (Efb-N), recombinant residues 29-103, His-tagged (Staphylococcus aureus); assay: as above
[6] = biological target: Extracellular fibrinogen-binding protein (Efb), recombinant full-length Efb (residues 29-165), His-tagged (Staphylococcus aureus); assay: pull-down; His-tagged Efb or Efb-N on His-Select HF nickel affinity gel; human platelet lysate (ultrasonication) with 3 mg/ml added fibrinogen; immunoblot; only the target purified
[7] = biological target: N-terminal region of Efb (Efb-N), recombinant residues 29-103, His-tagged (Staphylococcus aureus); assay: as above
[8] = biological target: P-selectin, native, of human platelets (human (endogenous in platelets)) (UniProt P16109); assay: flow cytometry on cells; 1 μM FITC-Efb on washed human platelets (10^7/ml) stimulated with 0.25 unit/ml thrombin, no added fibrinogen; with or without 50 μg/ml P-selectin-Fc; only the binder purified

With “N-terminal region of Efb (Efb-N), recombinant residues 29-103, His-tagged (from UniProt A0A0H2XIH9 29-103) (domain or fragment)” the binding [1] was “binds”.
In the case of “Extracellular fibrinogen-binding protein (Efb), recombinant full-length Efb (residues 29-165), His-tagged (from UniProt A0A0H2XIH9 29-165)”, the binding [2] is reported as “binds”.
In the case of “Recombinant P-selectin-Fc fusion protein (from UniProt P16109 42-771)”, the binding [3] is reported as “binds”.
“P-selectin, native, of human platelets (from UniProt P16109 42-830) (receptor)” was tested, and the binding [4] was “binds”, the binding [5] was “binds” and the binding [6] was “binds”. The binding [7] was “binds”.
In the case of “FITC-labeled full-length Efb (residues 29-165) (from UniProt A0A0H2XIH9 29-165)”, the binding [8] is reported as “binds”.
